Results as given in the supplement of paper PMC3334620.
In all, about 33,000 sequences were measured (“E-score (-0.5 to 0.5)”: median about -0.0059, highest 2% from about 0.26 on). Some of the results follow.

Each sequence was assayed against T1, Cin5 (UniProt P40917) (assay: PBM E-score (8-mer binding enrichment) (E-score (-0.5 to 0.5)); higher = stronger / more preferred TF binding). Details: protein concentration: 100 nM; construct: GST-full length.
T1 sequence: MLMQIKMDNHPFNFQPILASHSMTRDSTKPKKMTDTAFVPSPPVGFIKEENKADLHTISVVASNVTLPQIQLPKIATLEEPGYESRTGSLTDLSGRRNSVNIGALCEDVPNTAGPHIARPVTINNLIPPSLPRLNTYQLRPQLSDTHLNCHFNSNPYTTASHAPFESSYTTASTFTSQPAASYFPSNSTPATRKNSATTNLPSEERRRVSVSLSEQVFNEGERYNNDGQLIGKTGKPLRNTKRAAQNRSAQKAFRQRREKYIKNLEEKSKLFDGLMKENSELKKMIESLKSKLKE
In short: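 Universal all-10-mer Agilent arrays, fresh or stripped once, were converted to double-stranded form by primer extension. GST-tagged yeast transcription factors from PURExpress in vitro transcription/translation, full-length or DNA-binding domain only, were applied at about 100-200 nM and detected with fluorescent anti-GST. After masliner normalisation, the Universal PBM Analysis Suite scored each ungapped eight-base word together with its reverse complement by E-score.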

Row | Sequence | PBM E-score
1 | ATACACAA | 0.122
2 | CCGGCAGC | -0.115
3 | AGGCTCCG | -0.0483
4 | CTACGCAG | -0.0942
5 | CGTCTGGC | -0.131
6 | AGGTACAG | -0.0805
7 | AGTGGCTC | 0.0536
8 | CATCTGTA | 0.0354
9 | AAGAACTA | 0.089
10 | CACCAACA | 0.163
11 | TCGAGTCA | -0.0465
12 | GATATTGA | 0.0812
13 | TAGAAACA | -0.0267
14 | GAATTTAA | 0.0554
15 | GTCGCCAA | -0.0554
16 | TCACAACA | 0.0495
17 | CCACTCAA | 0.0609
18 | CCGCCTGC | -0.288
19 | ATATGACA | 0.219
20 | CTACCACA | -0.0341
21 | CATGGCGA | -0.0534
22 | ATGTTGGG | 0.0177
23 | AGGAAGGA | -0.221
24 | CGGGTTCC | -0.0262
25 | AACTGAAC | 0.113

Row | Sequence | PBM E-score
26 | AACCCTTA | 0.168
27 | TACAGCAA | 0.11
28 | CCAGCTGA | 0.141
29 | CATAAAAC | 0.036
30 | GGGGGAGA | -0.215
31 | ATTCGACA | -0.116
32 | AGCCGCGG | 0.103
33 | AGGACGGC | -0.28
34 | ACACCTTC | 0.0317
35 | GCTAGGCA | -0.305
36 | CTCGTCAG | 0.0601
37 | CCGCTCTC | -0.204
38 | ACATGCCA | 0.165
39 | AATAATTC | 0.261
40 | ATCCCTGC | -0.109
41 | AAATTAGG | 0.102
42 | AGGACTAC | -0.205
43 | ACCCAGAA | 0.0954
44 | GCCTCTGA | -0.13
45 | ATTTAGGA | -0.031
46 | AAGAGTCC | -0.181
47 | CAGGCACC | -0.258
48 | ATAATGAA | 0.254
49 | CGCCTTGC | -0.139
50 | AGGATTTG | -0.0503

5 entries drawn at random from those above:
Row | Sequence | PBM E-score
31 | ATTCGACA | -0.116
39 | AATAATTC | 0.261
27 | TACAGCAA | 0.11
33 | AGGACGGC | -0.28
37 | CCGCTCTC | -0.204

Next part

Row | Sequence | PBM E-score
51 | ATAGCAGG | -0.0202
52 | AACTCAGG | -0.129
53 | CGCTGTAG | -0.0977
54 | CGTCTTAG | -0.259
55 | AGGAGATA | -0.00724
56 | GGGCCGTA | -0.113
57 | ACGCGGAG | -0.0136
58 | CGGTCCCC | -0.285
59 | GACCAGAC | -0.182
60 | AACGTATA | 0.152
61 | CGCATGAG | -0.103
62 | ATTACAAT | 0.153
63 | ATTCGTCG | 0.102
64 | TGGTGTAA | 0.179
65 | CACTCCCA | -0.0158
66 | AACTAAAA | 0.208
67 | AAACTACG | -0.0524
68 | CGGAAAAC | 0.0779
69 | CATAGATC | -0.064
70 | CGTTCGAA | 0.131
71 | AATGCAGA | 0.0744
72 | CCCCTCGC | -0.182
73 | GGACTACA | -0.00389
74 | GCTGATAA | 0.0262
75 | ATGGGTAC | -0.0604

Row | Sequence | PBM E-score
76 | TAAAGCGA | 0.192
77 | AACCATCT | -0.0707
78 | AGTTTAGG | -0.151
79 | CACGATGC | -0.224
80 | GAGCGGTA | -0.0453
81 | CTTCGTCC | -0.0338
82 | ACAAAAGA | 0.164
83 | AGTCCGCA | -0.139
84 | CGTCCGTC | -0.208
85 | TCTTGTCA | 0.0205
86 | TAAATTTA | 0.206
87 | CGATAATA | 0.22
88 | GATCACTA | -0.00025
89 | AACGTCCG | -0.0391
90 | GTTCCCTA | -0.14
91 | ACTACGAA | 0.00813
92 | GCTACCTA | 0.00956
93 | GTGATGCA | 0.181
94 | GTGGAGAA | -0.0808
95 | TACGCGTA | -0.00365
96 | CCTTCGCA | -0.227
97 | CGGGTTGA | -0.0861
